Laboratory results from paper PMC4600896.
No constants are given. Whether binding was seen depends on the method and setting. Binding seen in cells or lysates may run through a third protein. Some entries that bind do so weakly or less than the wild type. Values belong to the binder of their own block, whether it stands above or below them.

Amino acid sequences for entries named in this document (tags omitted). A change or cut given only in a name is not applied to a line headed by its entry. Chains listed by the source or under a name are the forms on record and can include a tag or linker.
GFP-xDnmt1 (Q6GQH0, form named): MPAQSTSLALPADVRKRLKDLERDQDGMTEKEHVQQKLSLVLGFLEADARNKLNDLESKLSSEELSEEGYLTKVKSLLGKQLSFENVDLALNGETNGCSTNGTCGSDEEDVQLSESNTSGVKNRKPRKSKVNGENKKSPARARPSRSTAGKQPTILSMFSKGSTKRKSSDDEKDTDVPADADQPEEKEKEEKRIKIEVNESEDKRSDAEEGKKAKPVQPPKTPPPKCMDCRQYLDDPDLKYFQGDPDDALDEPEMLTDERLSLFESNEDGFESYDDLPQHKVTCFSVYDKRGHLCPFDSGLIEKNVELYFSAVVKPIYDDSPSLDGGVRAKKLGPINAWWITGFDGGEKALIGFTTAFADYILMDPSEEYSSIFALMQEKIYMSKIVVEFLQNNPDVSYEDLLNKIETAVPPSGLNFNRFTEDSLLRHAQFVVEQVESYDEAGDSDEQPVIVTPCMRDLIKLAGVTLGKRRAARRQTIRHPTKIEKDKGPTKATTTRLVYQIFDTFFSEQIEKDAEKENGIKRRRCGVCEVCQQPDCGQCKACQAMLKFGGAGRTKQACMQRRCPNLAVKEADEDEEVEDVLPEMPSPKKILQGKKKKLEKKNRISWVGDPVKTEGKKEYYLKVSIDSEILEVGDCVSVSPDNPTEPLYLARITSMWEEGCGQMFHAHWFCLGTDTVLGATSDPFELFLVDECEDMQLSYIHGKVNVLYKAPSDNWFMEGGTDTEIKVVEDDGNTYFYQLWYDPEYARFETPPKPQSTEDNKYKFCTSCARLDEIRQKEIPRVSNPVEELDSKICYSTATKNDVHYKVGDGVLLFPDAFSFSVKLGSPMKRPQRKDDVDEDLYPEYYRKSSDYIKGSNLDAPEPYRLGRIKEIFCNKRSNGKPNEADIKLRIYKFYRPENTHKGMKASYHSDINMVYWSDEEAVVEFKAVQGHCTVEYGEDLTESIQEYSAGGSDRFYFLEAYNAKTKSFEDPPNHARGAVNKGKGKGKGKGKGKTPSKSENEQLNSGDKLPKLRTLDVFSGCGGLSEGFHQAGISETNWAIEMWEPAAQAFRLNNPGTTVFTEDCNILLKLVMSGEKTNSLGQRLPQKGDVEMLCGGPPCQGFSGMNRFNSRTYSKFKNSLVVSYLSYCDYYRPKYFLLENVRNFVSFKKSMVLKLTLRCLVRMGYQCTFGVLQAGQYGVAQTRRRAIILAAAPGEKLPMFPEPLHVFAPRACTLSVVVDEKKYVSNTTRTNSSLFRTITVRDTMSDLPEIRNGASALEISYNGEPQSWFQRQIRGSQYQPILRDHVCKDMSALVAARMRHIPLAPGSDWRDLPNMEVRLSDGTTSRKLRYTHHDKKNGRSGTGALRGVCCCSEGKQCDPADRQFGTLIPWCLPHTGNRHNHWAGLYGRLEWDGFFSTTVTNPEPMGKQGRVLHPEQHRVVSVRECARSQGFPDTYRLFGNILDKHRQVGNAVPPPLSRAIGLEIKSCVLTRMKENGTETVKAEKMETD

Tests used:
[1] = molecular target: GFP-xDnmt1 (Xenopus laevis) (UniProt Q6GQH0); assay: co-IP; GFP-xDnmt1 and T7-xLsh coexpressed in 293T cells, nuclear extracts, immunoprecipitated under high salt conditions (250 mM NaCl), reciprocal
[2] = molecular target: endogenous human Dnmt1 (human (endogenous in SW620)), P26358; assay: co-IP; endogenous proteins of SW620 cells; hDnmt1 immunoprecipitates blotted with a human Lsh antibody; conditions: remark: other sources report otherwise

binding [1]: binds
B1: T7-xLsh (protein, UniProt Q4V835 1-838)
chain: MPVGQSSAEQVSPAPKMEPSDDDPIITESMIKEEEKLEKAAEVEERKMIEKARMSWERDSNEMRYKRLQHLLEKSNIYSKFLLTKMEQQQLEEMRRKEKLEKKQKRVQPVKMQNQSSANEDQTGGRKKRQREENYNISDVMSKEEILSVSKKSKLEHEDENYSNKLTSEEIEKNGDSNSTIKDRLSQTVRNNAKQLLDPERKVNGQPVPFQQPKYFTGGVMRWYQIEGMEWLRMLWENGINGILADEMGLGKTVQCIATISMMVERGVPGPFFVCGPLSTLPNWVSEFKRFSPEIPVLLYHGNAQDRRRLARKINKREGSLQLFPVVITSFEIAMRDRPVLQHNAWKYMILDEGHRIKNMNCRLIQELKLFRSDNKLLLTGTPLQNNLSELWSLLNFLLPDVFDDLRSFESWFDISGISQNAADIVANEREQNILHMLHQILTPFLLRRLKCDVTLEVPPKREVIVYAPLTKKQETFYTAIVNKTIEKMLGQEKDCEEILSSPAVGRAKRRSRRAVNYSELDKDTPNDLEKLINQLIKQQEVEKERPSTKVHLPSDSQVNLKMRNIMMLLRKCCNHPYLIEYPLDPLTQNFKIDEELVNSSGKFLLLDRLLPEMKKRGHKVLIFSQMTMMLDILMDYCYYKKFNFCRLDGSMSYTDREENMRSFNTDPDVFIFLVSTRAGGLGINLTAADTVIIYDSDWNPQADLQAQDRCHRIGQTRPVVVYRLVTANTIDQKIVERAAAKRKLEKLVIHKNKFKGGQTGINQSKSCLDPQELLELLQSRDYEREVKGSSEKVISDKDLEMLLDRSDLVAQMKNNVLLQNAKQGVFKVVDSTEVTVS

binding [2]: binds
B2: endogenous human Lsh, Q9NRZ9 1-838 (protein)
chain: MPAERPAGSGGSEAPAMVEQLDTAVITPAMLEEEEQLEAAGLERERKMLEKARMSWDRESTEIRYRRLQHLLEKSNIYSKFLLTKMEQQQLEEQKKKEKLERKKESLKVKKGKNSIDASEEKPVMRKKRGREDESYNISEVMSKEEILSVAKKNKKENEDENSSSTNLCVEDLQKNKDSNSIIKDRLSETVRQNTKFFFDPVRKCNGQPVPFQQPKHFTGGVMRWYQVEGMEWLRMLWENGINGILADEMGLGKTVQCIATIALMIQRGVPGPFLVCGPLSTLPNWMAEFKRFTPDIPTMLYHGTQEERQKLVRNIYKRKGTLQIHPVVITSFEIAMRDRNALQHCYWKYLIVDEGHRIKNMKCRLIRELKRFNADNKLLLTGTPLQNNLSELWSLLNFLLPDVFDDLKSFESWFDITSLSETAEDIIAKEREQNVLHMLHQILTPFLLRRLKSDVALEVPPKREVVVYAPLSKKQEIFYTAIVNRTIANMFGSSEKETIELSPTGRPKRRTRKSINYSKIDDFPNELEKLISQIQPEVDRERAVVEVNIPVESEVNLKLQNIMMLLRKCCNHPYLIEYPIDPVTQEFKIDEELVTNSGKFLILDRMLPELKKRGHKVLLFSQMTSMLDILMDYCHLRDFNFSRLDGSMSYSEREKNMHSFNTDPEVFIFLVSTRAGGLGINLTAADTVIIYDSDWNPQSDLQAQDRCHRIGQTKPVVVYRLVTANTIDQKIVERAAAKRKLEKLIIHKNHFKGGQSGLNLSKNFLDPKELMELLKSRDYEREIKGSREKVISDKDLELLLDRSDLIDQMNASGPIKEKMGIFKILENSEDSSPECLF
